Data on 6 molecules can be found in publication PMC9455862.

The target in this experiment is FBB18-YFP (Chlamydomonas reinhardtii). The experiment in a line: affinity purification with mass spectrometry; lysate of 1x10^9 fbb18-1 rescue cells expressing FBB18-YFP, anti-GFP rabbit mAb agarose beads, wild-type cells as control; SDS-PAGE gel slices analysed by mass spectrometry; one experiment.

Results are given in words; binding and its absence hold for the method and conditions named. Binding seen in cells or lysates may run through a third protein. Here binding means that the protein was enriched with, or labelled near, the bait; the list need not be complete. No binding means not detected with the bait.

B1: DNAAF18/DAW1/ODA16/WDR69 (protein, UniProt Q3Y8L7 1-446)
chain: MAAKLRKFLLRYYPPGIILQYERDGVMKQKPIDLLDLTPDVDVEVLLSQIIRQEPLISENRRPALRQLIHRLIDKMLEQQHHSFTLFKVLRAHILPLTNCAFNKSGDRFITGSYDRTCKVWNTFTGEEVFTLEGHKNVVYAIAFNNPYGDKIVTGSFDKTCKLWDAYTGQLYYTLKGHQTEIVCLSFNPQSTIIATGSMDNTAKLWDVETGQERATLAGHRAEIVSLGFNTGGDLIVTGSFDHDSRLWDVRTGQCVHVLSGHRGEVSSTQFNYAGTLVVSGSIDCTSRLWDVRSGRCLSVKQGHTDEVLDVAFDAAGTKMVSASADGSARLYHTLTGVCQHTLVGHEGEISKVAFNPQGTRLITASSDKTCRLWDCDTGECLQVLEGHTDEIFSCAFNYEGDFIITGSKDNTCRIWKALTASSQPAGPGGAGGGLARPTTAFSYND
As for B1, the binding entry is recorded as “no binding”.

B2: IC1 (protein, UniProt Q39578 1-683)
chain: MPALSPAKKGTDKGKTGKKTGKQEQNAQDYIPPPPPMPGDEAFAMPIREIVKPDNQLWLSEADLNEEVAKMLTANNPAAPKNIVRFNMKDKVFKLEPMVEQTVVHYATDGWLLHKSSDEAKRQMDMEKMEQEASARFQADIDRASHEHKDHGDVEPPDDSRQLRNQFNFSERAAQTLNYPLRDRETFTEPPPTATVSGACTQWEIYDEYIKDLERQRIDEAMKSKGGKKAAAAARAAGAAHRQRNEHVPTLQSPTLMHSLGTLDRMVNQNMYEEVAMDFKYWDDASDAFRPGEGSLLPLWRFVSDKSKRRQVTSVCWNPLYDDMFAVGYGSYEFLKQASGLINIYSLKNPSHPEYTFHTESGVMCVHFHPEFANLLAVGCYDGSVLVYDVRLKKDEPIYQASVRTGKLNDPVWQIYWQPDDAQKSLQFVSISSDGAVNLWTLTKSELIPECLMKLRVVRAGETREEEDPNASGAAGGCCMDFCKMPGQESIYLVGTEEGAIHRCSKAYSSQYLSTYVSHHLAVYAVHWNNIHPSMFLSASCRLDHQAVGLCHDPKRAVMNFDLNDSIGDVSWAALQPTVFAAVTDDGRVHVFDLAQNKLLPLCSQKVVKKAKLTKLVFNPKHPIVLVGDDKGCVTSLKLSPNLRITSKPEKGQKFEDLEVAKLDGVVEIARKSDADLAKNAAH
As for B2, the binding result was “no binding”.

B3: HSP90C (protein, UniProt Q66T67 1-810)
chain: MMLRGLSSGMRQARAQSSASAASAARPLPLLARGNGVSSALLSGASPCAAVTAAASLRPLPAGRGPVLMRAAATEAASGSETFTYQAEVDRLMDMIVNSLYSNREVFLRELISNASDALDKARFLSLTDPSVLAGREELDIRISADKEKGTLVIEDSGIGMSREQLLSNLGTIARSGTRKFMEAMAAKGDTNLIGQFGVGFYSAFLVADRVMVQSKSPEEAKHWVWEAKAGSHQYSIREDEAKDLVRGTRITLYLKEDAAEMADTVKITQLIKQYSQFIAFPIKVYAPKKEPRKVVDEEATKKKQAAADAKAKEAGEEAAKPVEPVMKTEYDEVWDWRLENENKPIWTRSPKDVSETAYNDFFKTTFGEFLDPLAHVHFNVEGTIEFSSILYIPGMAPFEQQNMQQRSKSIKLYVKRVFISDEFDEDLMPRYLAFVKGVVDSSDLPLNVSREILQESRIVRVIRKQLVRRSIEMLEELAGKEGGEDYKTFWEAFGRNIKYGVIEDTENRERLSKLLRFSSSKAEDSLTSLDEYVGRMGANQKTIYYMAADSVAAARAAPFMEAMVAKGIEVLYLTEPIDEACVTNLGKYGPDKNGPQYELVDVSKEGVSLDEGEDEKKKAEEVAKDMAPVVDFLKKALGERVEKVTVSNRLLDSPCALVTSKFGWSANMERIMRSQALGDARAMEYMKGRKIMEINPNHDIIAGIKTLLKEKDEDRARDLSELLYETALITSGFQVDSPKDYASKVFTLMKIALGYDILSEAEEQAAAAAPQAAEAAAAPKAAEAAAVPKVEATPVDAEVVSDDPWKKSA
For B3, the binding result is recorded as “binds”.

B4: p28 (protein, UniProt Q39604 1-253)
chain: MIPPLSSLVRYDNPVLVSTSKDKGKGAKGTPGKKGALPPVEQKPGLTQTEDILNSILPPREWTEDGQLWVQYVSSTPATRLDVINLQEKLDQQLQQRQARETGICPIREELYAQTFDELIRQVTINCAERGLLLLRVRDEMRMTIAAYQTLYESAVAFGIRKALQTEQGKSEMESRITQLEGDVKDLERQVQEWKFKCEAIEKRESERREVEAKKHKDEVAYLENYAKQLKQQLETFLVPAKKGAPGAPAAAT
B4: the binding result is given as “binds”.

B5: DNAAF14/MOT48 (protein, UniProt D4AHU0 1-451)
chain: MLITDNMLGKQEPQAVGPMDGPEPSPEELLALVELLQQQGMNMDQVPADLKTMLHNVKRQKAPATKGPATPEAPTEEITPDPGFVIKTTETKTGDKIFINVCWHDRVAAPGGWSNGVMPDEVAAALEKLQSAGGDEGAAHMSPSEVEALRFPLACGAPRVDTDRKGSPCTAIDVVFNSDVVRAAASARKLKAMLIEVSLGWVGNKLGGKLDPRYKLPKMRYKGEVVASQRIRADDKRKKLVTELREVDEEPSFALRTKKAPAPPPITAQSPASAASSTVAAPATASSADQQSVAAVGPASNHDRSSGAAASPSAAPTYKVDYAGRPVQWVQVTVDFPASGPSSSAAAQQPGCTSVEVCGRNVYIRAGPGAPELHVPLQFAVSAEGATAAWQEQQQPSTGGGKGPGGPLGQHLVVRLPYMGLQDYLADARAQAPLAFGQLSFASKALLELEP
Regarding B5, the binding entry is “no binding”.

B6: DNAAF2/PF13 (protein, UniProt B5BUZ8 1-675)
chain: MPGKEENDTLEKSLKELNLTSDEMTKFEKAFKDPEFIKLFEEYAKEVSDPKVKAETDAYLRQIEQQGRAEDVYGAGTQLIVPDPAGAVIKTKVVSSSASKKQQQEQEKQEKEQQQQAAGAGKPEGPGKQGALPVGQKVFINICTCDKLERYSLTDAQDPATGRLRPKLTIPLSLGPVRQGADKQGAPAAVYDFVVHPDSWTFAAGNAAGLATLADTALDHVEQVGRCRLVRAWKRLNCRYKGTEGAAEPPVQCIRTSAAAAAGAAGEGAGGRVRPRPDVPGVPDLPGAKTAPPAAAGAAATAAAAAGAAEGGAGSSSRSTFSFDKSRKAGGTEAAGAVAKQEATITDPARPGYRHPDGAVTPEWGLLHRGEADLGEAWGDAGKGLAAGGRVPKELVVRVTLPDVSSAAPVDLDVGARCLALTVPNRYRLSVQLPYGVDDAKGRAKFDKARKVLEVTLPVVPPPAPPPGAAAAARAGLALIQELGGSEEAAEVKAEVEVEVADVMGRDQEAAHAKSEAGAGAGVKSPHTAAAASSGAAPAPAAASEEEEEEDKEDGGPAAGSGGDPAAAAAAAGASSGRELTENERKWRELHARQQQEEQEQQEAAEAAAAAAAAAAEPSSRSQLTGTVAQGGAAAAAESVAAAKQQVQQQPVAAAAAPTAVLRPRLNRELAMELD
For B6, the binding entry is “binds”.
